PubChem BioAssay AID743121, NCATS, 2013

Test: 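Knock-downs that sensitise breast cancer cells to camptothecin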 (primary screen)
System: MDA-MB-231 cells, a human breast cancer line
Reagent: single siRNA against human genes, 20 nM siRNA (0.8 pmol per well)
Duration: 120 h (drug added 48 h after transfection, read 72 h later)
Conditions: camptothecin 20 nM (about EC30) for 72 h; vehicle 0.1% DMSO in parallel plates
Measurement: 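CellTiter-Glo ATP signal, scaled to control siRNA as percent viability; sensitisation given as log2 of untreated divided by camptothecin-treated viability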
Direction: log2 vehicle/camptothecin viability: higher = stronger sensitisation to camptothecin; viability with camptothecin: higher = more viable cells
Active means: 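Each gene scored by redundant siRNA activity (RSA) over its individual siRNA ratios; a gene is called active at p < 0.001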
Here is an unselected part of about 26,000 reagents tested. Over the whole deposit, 167 (0.63%) got an active call. 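Calls are per gene from RSA p-values that are not deposited; an individual active-marked siRNA can sensitise only weakly.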 A number with no mark means an inactive call. The numbers tell different reagents against one gene apart. Not all columns of the deposit are shown. No sequences are given here.

HMG20B #1
- log2 vehicle/camptothecin viability: 0.282
- viability with camptothecin (% of control): 57.9

HMG20B #2
- log2 vehicle/camptothecin viability: -0.27
- viability with camptothecin (% of control): 33.9

HMG20B #3
- log2 vehicle/camptothecin viability: 0.231
- viability with camptothecin (% of control): 29.1

HMG20B #4
- log2 vehicle/camptothecin viability: 0.916
- viability with camptothecin (% of control): 37.2

RHAG #1
- log2 vehicle/camptothecin viability: -0.496
- viability with camptothecin (% of control): 89.3

RHAG #2
- log2 vehicle/camptothecin viability: -0.00602
- viability with camptothecin (% of control): 69.4

RHAG #3
- log2 vehicle/camptothecin viability: -0.504
- viability with camptothecin (% of control): 68.1

RHAG #4
- log2 vehicle/camptothecin viability: -0.203
- viability with camptothecin (% of control): 99.4

NDUFAF5 #1
- log2 vehicle/camptothecin viability: -0.0158
- viability with camptothecin (% of control): 98.2

NDUFAF5 #2
- log2 vehicle/camptothecin viability: -0.169
- viability with camptothecin (% of control): 92.8

NDUFAF5 #3
- log2 vehicle/camptothecin viability: -0.277
- viability with camptothecin (% of control): 80.9

NDUFAF5 #4
- log2 vehicle/camptothecin viability: -0.0272
- viability with camptothecin (% of control): 91.1

OXSM #1
- log2 vehicle/camptothecin viability: -0.0831
- viability with camptothecin (% of control): 68.6

OXSM #2
- log2 vehicle/camptothecin viability: 0.336
- viability with camptothecin (% of control): 78.2

OXSM #3
- log2 vehicle/camptothecin viability: 0.000417
- viability with camptothecin (% of control): 65.1

OXSM #4
- log2 vehicle/camptothecin viability: -0.0356
- viability with camptothecin (% of control): 89.3

CCDC170 #1
- log2 vehicle/camptothecin viability: -0.0445
- viability with camptothecin (% of control): 105

CCDC170 #2
- log2 vehicle/camptothecin viability: -0.329
- viability with camptothecin (% of control): 91.6

CCDC170 #3
- log2 vehicle/camptothecin viability: -0.103
- viability with camptothecin (% of control): 57.2

CCDC170 #4
- log2 vehicle/camptothecin viability: -0.109
- viability with camptothecin (% of control): 100

PLXNB1 #1
- log2 vehicle/camptothecin viability: 0.00712
- viability with camptothecin (% of control): 100

PLXNB1 #2
- log2 vehicle/camptothecin viability: -0.402
- viability with camptothecin (% of control): 81.8

PLXNB1 #3
- log2 vehicle/camptothecin viability: -0.0451
- viability with camptothecin (% of control): 91.2

PLXNB1 #4
- log2 vehicle/camptothecin viability: -0.581
- viability with camptothecin (% of control): 93.5
